Measurements published in the supplement of paper PMC4635364.
Counter-ions that a name gives are not always drawn. The list shows a part of the results. This data set is noisy: repeats of one test often differ as much as different tests do.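 Human fetal ventral-midbrain neural progenitor line ReNCell VM, differentiated without mitogens. Images stained for doublecortin (early neurons) or tyrosine hydroxylase (dopaminergic neurons) were scored by blinded raters against untreated wells (0 = no change). Repeats and both raters were averaged, and compounds averaging 2 or higher were picked as hits for retesting.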

The compounds below were run on ReNCell VM (assay: dopaminergic neuron differentiation score (TH+ cell fraction vs untreated, manual image score) (score (0 to 3)); higher = more TH+ dopaminergic neuron differentiation). Settings: library: Prestwick; 2 uM; 4 weeks; BDNF 10 ng/ml + GDNF 10 ng/ml.

Dopaminergic neuron differentiation score, inactive:
C=C1/C(=C\C=C2/CCC[C@]3(C)[C@@H]([C@H](C)CCCC(C)C)CC[C@@H]23)C[C@@H](O)C[C@@H]1O [Alfacalcidol] 0
O=C(O)CCC(=O)c1ccc(-c2ccccc2)cc1 [Fenbufen] 0
CCCN[C@H]1CCc2nc(N)sc2C1 [Pramipexole] 0
Cc1ccnc(NS(=O)(=O)c2ccc(N)cc2)n1 [Sulfamerazine] 0
N=C(N)NS(=O)(=O)c1ccc(N)cc1 [Sulfaguanidine] 0
CC(=O)O[C@]1(C(C)=O)CC[C@H]2[C@@H]3C=C(Cl)C4=CC(=O)CC[C@]4(C)[C@H]3CC[C@@]21C [Chlormadinone acetate] 0
CCN(CC)CCNC(=O)c1cc(Cl)c(N)cc1OC [Metoclopramide monohydrochloride] 0
CC1CCc2c(N3CCC(O)CC3)c(F)cc3c(=O)c(C(=O)O)cn1c23 (stereo not drawn) [Nadifloxacin] 0
O=S(=O)(O)CCS [Mesna] 0
CCCc1nc2c(C)cc(-c3nc4ccccc4n3C)cc2n1Cc1ccc(-c2ccccc2C(=O)O)cc1 [Telmisartan] 0
CC[C@@H](CO)NCCN[C@@H](CC)CO [Ethambutol dihydrochloride] 0
O=C(O)c1cccnc1 [Niacin] 0
COc1ccccc1Oc1c(NS(=O)(=O)c2ccc(C(C)(C)C)cc2)nc(-c2ncccn2)nc1OCCO [Bosentan] 0

2 records drawn at random from those above, as already listed:
Dopaminergic neuron differentiation score, inactive:
CCCc1nc2c(C)cc(-c3nc4ccccc4n3C)cc2n1Cc1ccc(-c2ccccc2C(=O)O)cc1 [Telmisartan] 0
O=C(O)c1cccnc1 [Niacin] 0

Same assay, conditions: library: Spectrum; 2 uM; 4 weeks; BDNF 10 ng/ml + GDNF 10 ng/ml

Dopaminergic neuron differentiation score, inactive:
Clc1ccc(COC(Cn2ccnc2)c2ccc(Cl)cc2Cl)cc1 (stereo not drawn) 0
CC1(O)CCC(C(C)(C)O)CC1 (stereo not drawn) 0
CC(C)[N+](C)(CCOC(=O)C1c2ccccc2Oc2ccccc21)C(C)C 0
O=C(O)C(=O)O.[NH-][C@@H]1CCCC[C@H]1[NH-].[Pt+2] 0
CC(C)c1c(O)ccc2c1CC[C@H]1C(C)(C)CCC[C@]21C 0
O=C(/C=C/c1ccc(O)cc1)c1ccc(O)cc1O 0
Cn1c(=O)c2nc[nH]c2n(C)c1=O 0
CN(C)CCN(Cc1ccccc1)c1ccccn1 0
COc1ccc(-c2cc(=O)c3c(O)cc(OC)c(OC)c3o2)c(OC)c1 1
CC1Cc2ccccc2N1NC(=O)c1ccc(Cl)c(S(N)(=O)=O)c1 (stereo not drawn) 0
OC[C@H]1O[C@@H](O[C@H]2[C@H](O)[C@@H](O)[C@@H](O)O[C@@H]2CO)[C@H](O)[C@@H](O)[C@@H]1O 0
N[C@H]1C(O)O[C@H](CO)[C@@H](O)[C@@H]1O (stereo partly drawn) 0
COc1cc(/C=C/C(=O)O)ccc1O 0
OC1(c2ccc(Cl)c(C(F)(F)F)c2)CCN(CCCC(c2ccc(F)cc2)c2ccc(F)cc2)CC1 0
COC(=O)C1=C(C)NC(C)=C(C(=O)OCC(C)C)C1c1ccccc1[N+](=O)[O-] (stereo not drawn) 0
CCN(CC)CCNC(=O)c1cc(Cl)c(N)cc1OC 0

Same assay, conditions: library: Tocriscreen; 2 uM; 4 weeks; BDNF 10 ng/ml + GDNF 10 ng/ml

Dopaminergic neuron differentiation score, inactive:
O=C1CCc2c(ccc3ccccc23)O1 [Splitomicin] 0
Cc1c(C2CCN(CCc3ccccc3)CC2)noc1-c1ccc(Cl)cc1 [L-741,742 hydrochloride] 0
CCCCC#Cc1nc(NC)c2ncn([C@@H]3O[C@H](CO)[C@@H](O)[C@H]3O)c2n1 0
Cc1ccc(C(=O)Cn2c3c(sc2=N)CCCC3)cc1 [Pifithrin- à hydrobromide] 0
